According to PubChem BioAssay AID2685 (National Center for Advancing Translational Sciences (NCATS), 2010):
The other results are listed elsewhere or left out. Further columns of the screen follow, without active or inactive calls. Most of these compounds were active or inconclusive in the main read-out, so they are no random draw. Potencies come from curve fits of mixed quality, noted in brackets.

Experiment: qHTS Assay for Lipid Storage Modulators in Drosophila S3 Cells;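 as to cell number change: cells counted by Cell Tracker Red CMTPX staining in the red channel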
Conditions: BODIPY lipid droplet fluorescence, 18-24 h; for cell number change: measured here: cell count max response, cells fed with added oleic acid
Procedure, shortened: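 Drosophila S3 cells loaded with oleic acid (400 uM, as added) and compounds at several concentrations; lipid droplets imaged by 488-nm laser-scanning cytometry, 500–530 nm intensity and object ratio to cell channel. Percent activity normalized to 20 uM Triacsin C.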

[1] = measured here: lipid fluorescence (Fed channel) AC50, cells fed with added oleic acid
[2] = measured here: cell number channel AC50, cells fed with added oleic acid

SMILES | cell number change | AC50 [1] | AC50 [2]
Oc1ccc(C[C@H]2CNCCN2CCc2cccc3ccccc23)cc1 | 20.3% | 2060 nM [rising, partial curve] | 
Cc1cc(C)nc(-n2nc(C)c3c(C)c(C)c(C)nc32)n1 | 12.3% |  | 
COc1ccc(NC(=O)C2CCCN(S(=O)(=O)c3ccc4c(c3)CCCN4C(C)=O)C2)cc1Cl (stereo not given) | -30% |  | 2310 nM [falling, partial curve]
COC(=O)c1sccc1NC(=S)N1CCN(c2ccc(F)cc2)CC1 | 8.36% | 517 nM [rising, single point] | 
CC(/C=C/c1ccc2c(c1)OCO2)=N/NC(=O)C1COc2ccccc2O1 (stereo not given) | 5.63% | 29.1 nM [rising, full curve, poor fit] | 
Oc1ccc(/C=C/c2ccnc3ccccc23)cc1 | -15.7% | 7310 nM [rising, partial curve] | 
COc1ccccc1OCC(=O)NN=C(Cc1ccccc1)Cc1ccccc1 | -45.3% | 116 nM [falling, full curve, poor fit] | 231 nM [falling, full curve, poor fit]
CCOc1ccc(S(=O)(=O)NCc2ccc(Cl)cc2)c2cccnc12 | 12.7% | 32600 nM [falling, single point] | 291 nM [rising, partial curve, poor fit]
CSCC[C@H](NC(=O)N1CCn2c1nc1ccccc12)C(=O)NCC1CCCO1 (stereo not given in full) | 3.63% |  | 
CCCNS(=O)(=O)c1ccc(OCC(=O)NCc2ccc3c(c2)OCO3)cc1 | -2.03% | 7310 nM [rising, partial curve] | 
CC1CCN(C(=O)C2CCN(S(=O)(=O)c3cnc[nH]3)CC2)CC1 | -210% |  | 18400 nM [falling, partial curve]
CCCCN(C)CCNC(=O)C1CCN(S(=O)(=O)c2cccc3nsnc23)CC1 |  | 580 nM [falling, single point] | 
Cc1c(Cl)cccc1N(CC(=O)N1CCCCCC1)S(C)(=O)=O | 3.94% | 4110 nM [falling, partial curve, poor fit] | 
O=C(OCC(=O)N1CCc2ccccc21)c1ccccc1F | 20.6% | 326 nM [falling, single point] | 
CCN1C(=O)[C@H]2[C@@H](c3ccc(C)cc3)N3C(=O)N(c4ccc(C(F)(F)F)cc4)C(=O)[C@@]3(Cc3ccccc3)[C@H]2C1=O | 10.2% |  | 
COc1ccc(N2CCCn3c2nc2c3c(=O)n(Cc3ccccc3F)c(=O)n2C)c(OC)c1 | 10.2% | 461 nM [falling, single point] | 731 nM [rising, single point]
CCCOC(=O)C1=C(C)NC2=C(C(=O)CCC2)C1c1cccc(OC)c1OC (stereo not given) | -20.4% | 164 nM [rising, full curve, poor fit] | 
CCc1ccc(N(C(=O)c2ccco2)C(C(=O)NC2CCCC2)c2ccncc2)cc1 (stereo not given) | -10% |  | 
CCCCNC(=S)N(CCN(CC)CC)Cc1cc2cc3c(cc2[nH]c1=O)OCO3 | 4.39% |  | 
NS(=O)(=O)c1ccc(NC(=S)NCCc2ccccc2)cc1 | 4.46% |  | 

SMILES | cell number change | AC50 [1] | AC50 [2]
COC(=O)C1=C(C)N(Cc2ccccc2)C(=NCc2ccc(OC)cc2)N[C@H]1c1cccc(F)c1 | -8.38% | 29100 nM [rising, single point] | 
COc1ccc(C(=O)C2CCCN(C(=O)c3noc4c3CCCC4)C2)c(C)c1 (stereo not given) | -27.1% |  | 
CCc1nnc(NC(=O)CN2CCN(Cc3cccc(OC)c3)CC2)s1 | 7.94% | 29100 nM [rising, single point] | 
COC(=O)C12CCC(C)(c3nc4ccccc4nc31)C2(C)C (stereo not given) | -21.5% | 4110 nM [falling, single point] | 3260 nM [falling, single point]
Cc1ccc(N2CC(C(N)=O)CC2=O)cc1 (stereo not given) | -0.215% | 23100 nM [falling, partial curve] | 
COc1ccc(C(=O)Nc2ncc3c(n2)CC(C)CC3=O)cc1 (stereo not given) | 39.2% |  | 32600 nM [rising, partial curve, poor fit]
CCOc1ccc(CCNC(=O)c2cc3ccccn3n2)cc1OCC | -36.8% | 29100 nM [falling, single point] | 4.61 nM [falling, full curve, poor fit]
COCCNC(=O)c1cnn2c(C(F)(F)F)cc(-c3ccc4c(c3)OCO4)nc12 |  |  | 5.8 nM [rising, full curve, poor fit]
COc1ccc(CCNC(=O)CN2C(=O)c3cccc4cccc(c34)C2=O)cc1OC | -59.2% | 51.7 nM [falling, full curve] | 1160 nM [falling, full curve]
COc1ccc(NC(=O)COc2ccc(C(=O)NC3CCCc4ccccc43)cc2OC)cc1 (stereo not given) | 17.9% | 3260 nM [rising, single point] | 
Cc1ccc(C(=O)Nc2ccc(S(=O)(=O)N3CCCC3)cc2)s1 | -19.1% | 29100 nM [rising, single point] | 
COc1cc(NC(=O)c2ccc([N+](=O)[O-])o2)ccc1NC(=O)c1ccco1 |  | 10300 nM [falling, partial curve] | 
NNC(=S)Nc1cccc(-c2n[nH]c(=S)o2)c1 | 14.7% | 651 nM [falling, single point] | 
CCn1c(=N)n(CC(=O)c2cccc(OC)c2)c2ccccc21 | 6.19% | 1460 nM [rising, partial curve] | 920 nM [rising, full curve]
c1ccc2[nH]c(NCc3ccc4c(c3)OCO4)nc2c1 | -37.8% |  | 2060 nM [falling, single point]
COc1ccccc1NC(=O)CSc1nnc(CNC(=O)c2cccs2)o1 | 20.4% |  | 4.11 nM [rising, full curve, poor fit]
Cc1cccc(NC(=O)NNC(=O)c2cc3occc3[nH]2)c1C | -1.52% |  | 
CC(=O)NC(Cc1ccccc1C)C(=O)NC1CCN(C(=O)c2cccc(C)c2)CC1 (stereo not given) | 28.5% | 20600 nM [rising, partial curve, poor fit] | 
CC(=O)c1ccc(NS(=O)(=O)c2ccc(N)cc2)cc1 | -3.15% | 651 nM [falling, single point] | 
CCc1cc(C(=O)Nc2nc(-c3ccccn3)cs2)sc1C |  | 6510 nM [falling, single point] | 

SMILES | cell number change | AC50 [1] | AC50 [2]
COc1ccc(O)c(/C=C2/SC(=S)N(Cc3ccccc3)C2=O)c1 | -48.9% | 29100 nM [falling, single point] | 
O=S(=O)(Nc1cccc2nsnc12)c1ccccc1 | 78.6% |  | 10300 nM [rising, partial curve]
CC1(C)CC(=O)C=C(N2CCOCC2)C1 | -40.7% | 14600 nM [falling, partial curve] | 16400 nM [falling, single point]
O=C(c1cc2ccccc2o1)N(C1CC1)C1(C(=O)Nc2ccccc2)CCCC1 | -11.5% |  | 
O=S(=O)(CC(CN1CCCCC1)N1CCCCC1)c1ccccc1 (stereo not given) | 3.07% | 2310 nM [rising, single point] | 
O=C(COC(=O)c1cc([N+](=O)[O-])ccc1N1CCOCC1)NCc1ccc(F)cc1 | -19.8% | 25900 nM [falling, single point] | 
CN(C)CCNC(=O)NC(=O)c1ccc(Cl)cc1 | -22.1% | 731 nM [falling, full curve] | 
CC(C)(C)CN1CCN(CCCc2ccccc2)C(CCO)C1 (stereo not given) | -0.293% | 206 nM [rising, full curve, poor fit] | 
Cc1ccc2nc(-c3ccc(O)c(O)c3)cn2c1 | -27.9% | 32600 nM [falling, single point] | 
COc1cccc(C(=O)NCCSc2ccc(C)cc2)c1 |  | 580 nM [falling, full curve, poor fit] | 10.3 nM [falling, full curve, poor fit]
CC1CCCN(S(=O)(=O)c2ccc(N(C(=O)c3cnccn3)C(C(=O)NC3CCCCC3)c3cccs3)cc2)C1 (stereo not given) | -3.75% |  | 
COC(=O)CCNS(=O)(=O)c1ccc2nsnc2c1 | 47.7% | 23100 nM [rising, partial curve, poor fit] | 25900 nM [rising, single point]
O=C(c1ccccc1)c1coc2ccc(O)c(Cl)c12 | -36.9% | 20600 nM [falling, partial curve] | 2060 nM [falling, full curve, poor fit]
Cc1ccccc1Nc1nnc(SCc2cc([N+](=O)[O-])cc3c2OCOC3)s1 |  | 920 nM [rising, partial curve] | 461 nM [rising, partial curve]
CC(C)n1cc(CN2CCC(C(=O)Nc3cccc(-c4cccc(Cl)c4)c3)CC2)cn1 | -24.6% | 6510 nM [rising, single point] | 
CC(NC(=O)NNC(N)=S)(C(F)(F)F)C(F)(F)F | 14% | 2060 nM [rising, partial curve] | 4110 nM [rising, partial curve, poor fit]
O=C(COC(=O)CNS(=O)(=O)c1ccc(Cl)cc1)NC1CCCCC1 | -49.7% | 291 nM [rising, full curve] | 14600 nM [falling, single point]
CCOC(=O)CSc1nc(NCc2ccco2)c2ccccc2n1 | -16.3% | 366 nM [falling, partial curve] | 
CN(CCC#N)S(=O)(=O)c1ccc2[nH]cc(C(=O)NCCc3ccccc3)c(=O)c2c1 | 20.7% |  | 

Structures shown so far with an aryl thioether with sulfur outside any ring (four):
SMILES | cell number change | AC50 [1] | AC50 [2]
COc1ccccc1NC(=O)CSc1nnc(CNC(=O)c2cccs2)o1 | 20.4% |  | 4.11 nM [rising, full curve, poor fit]
COc1cccc(C(=O)NCCSc2ccc(C)cc2)c1 |  | 580 nM [falling, full curve, poor fit] | 10.3 nM [falling, full curve, poor fit]
Cc1ccccc1Nc1nnc(SCc2cc([N+](=O)[O-])cc3c2OCOC3)s1 |  | 920 nM [rising, partial curve] | 461 nM [rising, partial curve]
CCOC(=O)CSc1nc(NCc2ccco2)c2ccccc2n1 | -16.3% | 366 nM [falling, partial curve] | 
